# Laboratory results from the supplement of paper PMC10735217.
# Structures can show the parent of a compound that is named as a salt. This is one part of the list. Repeats in this data set agree poorly, so a single value says little.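 Human kidney-derived cells stably carry a construct in which eight TEAD-binding elements drive luciferase, measured by luminescence in a drug-repurposing library screen. A hit is any compound whose signal exceeds the plate mean by more than five robust Z scores.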
# System: HEK293A TEAD-LUC reporter
# Assay: TEAD-luciferase reporter activity (YAP activation), robust Z score vs plate; higher = stronger YAP/TEAD activation
# Details: 24 h
Structure (SMILES),TEAD-luciferase reporter activity (compound concentration: 200 nM),TEAD-luciferase reporter activity (compound concentration: 2 uM),TEAD-luciferase reporter activity (compound concentration: 10 uM)
N/C(=N\O)c1ccc(O)c(O)c1 [amidox],inactive: 1.97,inactive: 1.02,inactive: 0.506
CCCCCCCCCCCCC/C=C/[C@@H](O)[C@H](COC1OC(CO)C(OC2OC(CO)C(OC3OC(CO)C(O)C(OC4OC(CO)C(O)C(O)C4O)C3NC(C)=O)C(OC3(C(=O)[O-])CC(O)C(NC(C)=O)C(C(O)C(O)CO)O3)C2O)C(O)C1O)NC(=O)CCCCCCCCCCCCCCCCC (stereo partly specified) [Monosialoganglioside GM],inactive: -1.45,inactive: -0.027,inactive: -0.368
CCCCC#Cc1nc(NC)c2ncn([C@@H]3O[C@H](CO)[C@@H](O)[C@H]3O)c2n1,inactive: 2.58,inactive: 0.206,inactive: 1.06
CN(Cc1c(-c2ccc(Cl)cc2)nc2ccccn12)C(=O)c1c(Cl)cccc1Cl,inactive: -0.432,inactive: -0.311,inactive: 0.0868
CNc1nccc(-c2cc3cc(C(=O)NC(CN(c4ccccc4)c4ccccn4)C(=O)O)ccc3[nH]2)n1 (stereo unspecified),inactive: 0.188,inactive: -0.414,inactive: -0.641
COc1cc2ncc(N[C@H]3CC[C@H](O)CC3)nc2cc1OC,inactive: -0.698,inactive: -1.59,inactive: 1.76
CC(C)(C#N)NC(=O)[C@H]1CC[C@H]2[C@@H]3CC[C@H]4NC(=O)C=CC4(C)[C@H]3CCC12C (stereo partly specified),inactive: 0.154,inactive: -0.795,inactive: -0.911
Nc1ccn([C@H]2C[C@H](O)[C@@H](CO)O2)c(=O)n1 [Torcitabine],inactive: -1.81,inactive: 0.203,inactive: 0.00528
CN(c1ncccc1CNc1nc(Nc2ccc3c(c2)CC(=O)N3)ncc1C(F)(F)F)S(C)(=O)=O,inactive: -1.8,–,inactive: -1.35
C[C@@]12CCc3occc3[C@H]1CC[C@@]13C[C@@H](CC[C@H]12)[C@@](O)(CO)C3 [Cafestol],–,inactive: -0.978,–
C[C@@]12CCc3occc3[C@H]1CC[C@@]13C[C@@H](CC[C@H]12)[C@@](O)(CO)C3,inactive: 1.07,–,inactive: 0.768
C=C[C@]1(C)C[C@@H](OC(=O)CSC23CCN(CC2)CC3)C2(C)C3C(=O)CC[C@]3(CC[C@H]2C)[C@@H](C)[C@@H]1O (stereo partly specified),inactive: -0.881,inactive: -1.01,inactive: 0.837
NCCCC[C@@H]1NC(=O)[C@@H](Cc2c[nH]c3ccccc23)NC(=O)[C@H](c2ccccc2)NC(=O)[C@@H]2C[C@@H](OC(=O)NCCN)CN2C(=O)[C@H](Cc2ccccc2)NC(=O)[C@H](Cc2ccc(OCc3ccccc3)cc2)NC1=O [Pasireotide diaspartate],inactive: -0.841,inactive: 0.314,inactive: -0.94
Nc1nc(N)c2ncn(COCCO)c2n1,inactive: -0.883,inactive: -1.28,inactive: -2.15
OC[C@H]1O[C@@H](n2cnc3c(NCc4ccco4)ncnc32)[C@H](O)[C@@H]1O [Kinetin riboside],inactive: -1.09,inactive: -1.17,inactive: -0.318
Cc1ccc(N2c3cccc(C(=O)Nc4ccc(OCC(F)(F)F)nc4)c3OC[C@@H]2CO)nc1,inactive: -1.67,inactive: -0.585,inactive: -1.74
COc1ccccc1N1CCN(CCCCNC(=O)c2ccc3ccccc3c2)CC1,inactive: -1.1,inactive: 0.91,inactive: -0.447
COc1ccc2c(c1)c(-c1ccccc1)nc(=O)n2CC1CC1 [Ciproquazone],inactive: -0.959,inactive: 0.343,inactive: -1.48
Clc1ccc(C(c2ccccc2)N2CCN(C/C=C/c3ccccc3)CC2)cc1 (stereo unspecified),inactive: -0.981,inactive: -1.67,inactive: 0.174
Nc1ncc2ncn(COCCO)c2n1 [Desciclovir],inactive: 1.93,inactive: 0.109,inactive: 1.85
CCn1cc(C(=O)O)c(=O)c2ccc(Cl)cc21,inactive: 1.22,inactive: -1.81,inactive: -0.577
O=C1c2cccc3cccc(c23)C(=O)N1CCNCCN1C(=O)c2cccc3cccc(c23)C1=O,inactive: -0.911,inactive: -1.17,inactive: 0.658
Cn1c(=O)c2c(ncn2CC2OCCO2)n(C)c1=O [doxofylline],inactive: -1.31,inactive: -0.474,inactive: 0.949

Structure (SMILES),TEAD-luciferase reporter activity (compound concentration: 200 nM),TEAD-luciferase reporter activity (compound concentration: 2 uM),TEAD-luciferase reporter activity (compound concentration: 10 uM)
CN(C)CCC1(C)OCCC2=C1Cc1ccccc12 (stereo unspecified),inactive: 0.303,inactive: 2.53,inactive: 2.78
Cc1ccc(-n2c(-c3cnc(N4CCOCC4)nc3)nc3ccncc32)cc1,inactive: -1.85,inactive: -0.388,inactive: -1.55
O=C(O)COCCN1CCN(C(c2ccccc2)c2ccc(Cl)cc2)CC1 (stereo unspecified) [cetirizine dihydrochloride],–,inactive: 0.0694,–
O=C(O)COCCN1CCN(C(c2ccccc2)c2ccc(Cl)cc2)CC1 (stereo unspecified),inactive: 1.24,–,inactive: -2.12
CCN1CCCCC12Cc1ccccc1CN(C(=O)C1CCN(C)CC1)C2 (stereo unspecified),inactive: 4.25,–,inactive: 4.64
CC(=O)OCC(=O)C1(O)C(C)CC2C3CCC4=CC(=O)C=CC4(C)C3(F)C(O)CC21C (stereo unspecified) [dexamethasone acetate],inactive: -0.219,inactive: -0.891,inactive: 1.05
CCNC(=O)[C@@H]1CCCN1C(=O)[C@H](CCCNC(=N)N)NC(=O)[C@H](CC(C)C)NC(=O)[C@@H](Cc1cn(Cc2ccccc2)cn1)NC(=O)[C@H](Cc1ccc(O)cc1)NC(=O)[C@H](CO)NC(=O)[C@H](Cc1c[nH]c2ccccc12)NC(=O)[C@H](Cc1cnc[nH]1)NC(=O)[C@@H]1CCC(=O)N1 [Histrelin],inactive: -0.887,inactive: -0.919,inactive: -1.91
CC(C)C[C@H](NC(=O)[C@@H](Cc1c[nH]c2ccccc12)NC(=O)[C@H](Cc1ccc(O)cc1)NC(=O)[C@H](CO)NC(=O)[C@H](Cc1c[nH]c2ccccc12)NC(=O)[C@H](Cc1c[nH]cn1)NC(=O)[C@@H]1CCC(=O)N1)C(=O)N[C@@H](CCCNC(=N)N)C(=O)N1CCC[C@H]1C(=O)NCC(N)=O,inactive: 0.113,inactive: 0.236,inactive: 1.38
CC(C)OC(=O)N1CCC(Oc2ncnc3c2cnn3-c2ccc(S(C)(=O)=O)cc2F)CC1,inactive: 1.04,inactive: -0.338,inactive: 0.806
Cc1ccc(C(=O)NS(=O)(=O)c2ccc(N)cc2)cc1C,inactive: 0.215,inactive: -1.28,inactive: 1.41
CCNC(=O)[C@@H]1CCCN1C(=O)[C@H](CCCNC(=N)N)NC(=O)[C@H](CC(C)C)NC(=O)[C@@H](Cc1c[nH]c2ccccc12)NC(=O)[C@H](Cc1ccc(O)cc1)NC(=O)[C@H](CO)NC(=O)[C@H](Cc1c[nH]c2ccccc12)NC(=O)[C@H](Cc1c[nH]cn1)NC(=O)[C@@H]1CCC(=O)N1 [Deslorelin],inactive: 0.142,inactive: -0.258,inactive: -1.97
CC(C)[C@@H]1NC(=O)[C@H](CCCCN)NC(=O)[C@@H](Cc2c[nH]c3ccccc23)NC(=O)[C@H](Cc2ccc(O)cc2)NC(=O)[C@@H](NC(=O)[C@H](N)Cc2ccccc2)CSSC[C@@H](C(=O)N[C@@H](Cc2c[nH]c3ccccc23)C(N)=O)NC1=O [Vapreotide acetate],inactive: -1.16,inactive: -1.1,inactive: -1.1
c1ccc2c(c1)CSSC2,inactive: -0.75,inactive: -0.35,inactive: 1.21
COc1ccc(-c2cc(=O)c3c(O)cc(OC4OC(COC5OC(C)C(O)C(O)C5O)C(O)C(O)C4O)cc3o2)cc1O (stereo unspecified) [diosmin],inactive: -1.15,inactive: 0.214,inactive: -2.01
Cn1cc[nH]c1=S [Methimazole],inactive: -0.431,inactive: -1.31,inactive: 0.719
CC[C@H](C)[C@H](N)C(=O)N[C@H]1CSSC[C@@H](C(=O)N[C@H](C(N)=O)[C@@H](C)O)NC(=O)[C@H](CCCNC(=N)N)NC(=O)[C@H](Cc2c[nH]cn2)NC(=O)[C@H](Cc2c[nH]cn2)NC(=O)CNC(=O)[C@H](Cc2c[nH]c3ccccc23)NC(=O)[C@H](CC(=O)O)NC(=O)[C@H](CCC(N)=O)NC(=O)[C@H](C(C)C)NC(=O)[C@H](C(C)C)NC1=O,inactive: -0.536,inactive: -0.539,inactive: -1.29
CN(C)c1nc(Cc2ccc(NC(=O)c3ccc(C(F)(F)F)cc3)cc2)nc(N(C)C)c1CC(=O)O,inactive: -0.872,inactive: -1.2,inactive: -0.44
CC(=O)CC/C=C(\C)CC/C=C(\C)CC/C=C(\C)CCC=C(C)C [tepre],inactive: -1.59,inactive: 2.31,inactive: 1.89
CO/N=C(\C(=O)N[C@@H]1C(=O)N2C(C(=O)[O-])=C(C[n+]3cccc4c3CCC4)CS[C@H]12)c1csc(N)n1 [cefpirome],–,inactive: -1.01,–
CO/N=C(\C(=O)N[C@@H]1C(=O)N2C(C(=O)[O-])=C(C[n+]3cccc4c3CCC4)CS[C@H]12)c1csc(N)n1 [Cefpirome sulfate],inactive: 0.492,–,inactive: 1.24
Cc1nc2ccc(CN(C)c3ccc(C(=O)N[C@@H](CCC(=O)O)C(=O)O)s3)cc2c(=O)[nH]1 [Raltitrexed],–,inactive: 0.381,–
Cc1nc2ccc(CN(C)c3ccc(C(=O)N[C@@H](CCC(=O)O)C(=O)O)s3)cc2c(=O)[nH]1 [Raltitrexed (Tomudex)],inactive: -1.37,–,inactive: -0.355
